Measurements as given in patent US20060282909A1.
Results are given in words; binding and its absence hold for the method and conditions named. Some entries that bind do so weakly or less than the wild type.

Amino acid sequences for entries named in this document (tags omitted). A change or cut given only in a name is not applied to a line headed by its entry.
UniProt P04386: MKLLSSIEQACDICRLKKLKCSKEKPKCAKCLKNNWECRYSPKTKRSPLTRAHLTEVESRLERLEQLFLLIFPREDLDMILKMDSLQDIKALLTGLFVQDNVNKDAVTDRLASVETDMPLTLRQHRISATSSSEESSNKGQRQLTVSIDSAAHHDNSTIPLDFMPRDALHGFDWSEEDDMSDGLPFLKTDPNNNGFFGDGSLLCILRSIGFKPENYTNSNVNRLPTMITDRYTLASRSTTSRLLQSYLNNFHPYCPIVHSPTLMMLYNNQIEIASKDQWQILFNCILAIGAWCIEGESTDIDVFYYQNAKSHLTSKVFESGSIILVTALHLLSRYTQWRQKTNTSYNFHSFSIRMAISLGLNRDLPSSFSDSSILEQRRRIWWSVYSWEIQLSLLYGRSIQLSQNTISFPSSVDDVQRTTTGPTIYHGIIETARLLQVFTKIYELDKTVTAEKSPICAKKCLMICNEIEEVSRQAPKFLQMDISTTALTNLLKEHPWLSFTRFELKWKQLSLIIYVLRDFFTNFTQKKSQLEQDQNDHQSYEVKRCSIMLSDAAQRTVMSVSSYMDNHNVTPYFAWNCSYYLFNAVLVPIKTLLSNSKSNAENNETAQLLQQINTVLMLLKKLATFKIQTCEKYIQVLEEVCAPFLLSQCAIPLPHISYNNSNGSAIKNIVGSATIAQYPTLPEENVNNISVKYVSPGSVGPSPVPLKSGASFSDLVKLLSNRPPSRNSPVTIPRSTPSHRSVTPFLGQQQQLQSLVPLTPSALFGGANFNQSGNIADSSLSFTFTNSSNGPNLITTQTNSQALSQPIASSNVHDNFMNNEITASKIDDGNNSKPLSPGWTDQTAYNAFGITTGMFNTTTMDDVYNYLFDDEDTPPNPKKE
UniProt Q08369: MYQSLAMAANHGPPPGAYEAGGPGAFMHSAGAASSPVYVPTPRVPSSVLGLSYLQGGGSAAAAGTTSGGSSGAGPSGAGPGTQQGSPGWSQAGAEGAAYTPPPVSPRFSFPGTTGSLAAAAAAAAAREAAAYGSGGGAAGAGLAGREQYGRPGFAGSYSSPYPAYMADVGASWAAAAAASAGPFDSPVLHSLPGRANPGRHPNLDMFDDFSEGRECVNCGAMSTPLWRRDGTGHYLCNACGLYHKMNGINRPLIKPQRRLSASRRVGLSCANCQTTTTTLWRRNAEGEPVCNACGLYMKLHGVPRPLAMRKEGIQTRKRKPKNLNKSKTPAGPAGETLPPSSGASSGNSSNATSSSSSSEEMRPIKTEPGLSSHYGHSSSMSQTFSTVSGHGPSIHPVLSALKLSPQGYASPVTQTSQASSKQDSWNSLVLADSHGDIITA

Target: GATA4 bait: amino acids 130-409 of GATA4 fused in-frame with the GAL4 DNA binding domain (pAS-GATA4) (yeast) (UniProt P04386+Q08369)
Assay: mammalian two-hybrid transfection assay

binding: binds
B1: full length NF-AT3 (protein)
chain: MGAASCEDEELEFLLVFGEELEAPPLGAGGLGEELDSEDAPPCCRLALGEPPPYGAAPIGIPRPPPPRPGMHSPPPRPAPSPGTWESQPARSVRLGGPGGGAGGAGGGRVLECPSIRITSISPTPEPPAALEDNPDAWGDGSPRDYPPPEGFGGYREAGAQGGGAFFSPSPGSSSLSSWSFFSDASDEAALYAACDEVESELNEAASRFGLGSPLPSPRASPRPWTPEDPWSLYGPSPGGRGPEDSWLLLSAPGPTPASPRPASPCGLRRYSSSGTPSSASPALSRRGSLGEEGSEPPPPPPLPLARDPGSPGPFDYVGAPPAESIPQLTRRTSSEQAVALPRSEEPASCNGLLPLGAEESVAPPGGSRKEVAGMDYLAVPSPLAWSLARIGGHSPIFRTSALPPLDWPLPSQYEQLELRIEVQPRAHHRAHYETEGSRGAVLAAPGGHPVVLLLGYSELPLTLQMFIGTADERNLRPHAFYQVHRITGLMVATASYEAVVSGTLVLEMTLLPENNMAANIDCAGILLLRNSDIELRKGETDIGRKNTRVRLVFRVHVPQGGGLVVSVQAASVPIECSQRSAQELPQVEAYSPSACSVRGGEELVLTGSNFLPDSLVVFIERGPDGLLQWEEEATVNRLQSNEVTLTLTVPEYSNLRVSRPVQVYFYVSNGRRKRSPTQSFRFLPVICLEEPLPDSSLRGFPSASATPFGTDMDFSPPRPPYPSYPHEDPACETPYLSEGFGYGMPPLYPQTGPPPSYRPGLRMFPETRGTTGCAQPPAVSFLPRPFPSDPYGGRGSSFPLGLPFSPPAPFRPPPLPASPPLEGPFPSQSDVHPLPAEGYNLVGPGYGPGEGAPEQELSRGGYSSGFRDSVPIQGITLEEVSEIIGRDLSGFPAPPGEEPPA
